Assay results: publication PMC7710697
These are yes or no findings as the source states them, for the method shown. In cells and extracts the contact can be indirect. Some binding calls cover weakened binding; strength is not graded here. Each block holds one molecule with its values, some of them ahead of it.

Protein sequences, listed by entry. Tags and fused reporters are not part of them.
UniProt Q9GZV5: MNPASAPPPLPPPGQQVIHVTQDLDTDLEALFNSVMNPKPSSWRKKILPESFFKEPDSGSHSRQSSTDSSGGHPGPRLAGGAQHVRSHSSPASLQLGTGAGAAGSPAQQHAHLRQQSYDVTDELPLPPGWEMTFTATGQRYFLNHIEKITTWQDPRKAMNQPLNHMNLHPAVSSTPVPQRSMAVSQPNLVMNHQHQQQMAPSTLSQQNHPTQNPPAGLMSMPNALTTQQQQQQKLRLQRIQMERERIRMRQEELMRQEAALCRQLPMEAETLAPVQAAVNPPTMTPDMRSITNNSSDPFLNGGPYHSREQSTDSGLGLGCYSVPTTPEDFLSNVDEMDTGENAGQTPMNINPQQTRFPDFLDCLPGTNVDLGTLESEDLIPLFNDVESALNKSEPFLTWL

Molecular target: T1, SKIL (UniProt P12757)
T1 sequence: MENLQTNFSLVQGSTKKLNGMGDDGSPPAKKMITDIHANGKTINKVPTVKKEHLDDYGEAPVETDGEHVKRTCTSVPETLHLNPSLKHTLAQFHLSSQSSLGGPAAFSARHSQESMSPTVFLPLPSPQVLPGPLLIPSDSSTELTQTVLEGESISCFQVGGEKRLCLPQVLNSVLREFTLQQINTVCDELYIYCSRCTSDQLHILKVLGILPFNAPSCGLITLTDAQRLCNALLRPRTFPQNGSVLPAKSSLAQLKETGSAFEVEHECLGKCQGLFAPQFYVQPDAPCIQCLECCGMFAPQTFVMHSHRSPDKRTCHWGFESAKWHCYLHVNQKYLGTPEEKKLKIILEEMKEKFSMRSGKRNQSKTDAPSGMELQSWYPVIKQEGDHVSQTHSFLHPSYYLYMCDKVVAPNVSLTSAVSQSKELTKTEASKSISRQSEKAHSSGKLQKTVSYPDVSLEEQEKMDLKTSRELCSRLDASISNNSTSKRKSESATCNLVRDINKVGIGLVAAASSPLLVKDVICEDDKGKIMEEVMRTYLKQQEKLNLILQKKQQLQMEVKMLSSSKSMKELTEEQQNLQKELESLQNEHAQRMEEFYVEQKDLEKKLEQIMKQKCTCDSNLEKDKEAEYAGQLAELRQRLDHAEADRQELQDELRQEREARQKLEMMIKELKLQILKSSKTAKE
Assay: co-IP; anti-SKIL antibody on protein A-Sepharose beads precipitates endogenous SKIL from cell lysates; high-salt lysis buffer (420 mM NaCl, 50 mM HEPES-KOH pH 7.8, 5 mM EDTA, 0.1% NP-40, 3 mM dithiothreitol); precipitate analysed by western blot

binding: no binding
Molecule: TAZ (from UniProt Q9GZV5 1-400)

binding: binds
B1: Salvador (protein, UniProt Q9H4B6 1-383)
chain: MLSRKKTKNEVSKPAEVQGKYVKKETSPLLRNLMPSFIRHGPTIPRRTDICLPDSSPNAFSTSGDVVSRNQSFLRTPIQRTPHEIMRRESNRLSAPSYLARSLADVPREYGSSQSFVTEVSFAVENGDSGSRYYYSDNFFDGQRKRPLGDRAHEDYRYYEYNHDLFQRMPQNQGRHASGIGRVAATSLGNLTNHGSEDLPLPPGWSVDWTMRGRKYYIDHNTNTTHWSHPLEREGLPPGWERVESSEFGTYYVDHTNKKAQYRHPCAPSVPRYDQPPPVTYQPQQTERNQSLLVPANPYHTAEIPDWLQVYARAPVKYDHILKWELFQLADLDTYQGMLKLLFMKELEQIVKMYEAYRQALLTELENRKQRQQWYAQQHGKNF
